In patent US20220153859A1 one finds binding data, which are given here for 1 molecule.

By UniProt entry, the sequences of proteins in these tests, tags left out. Residues count along the entry.
UniProt P02724, residues 20-150: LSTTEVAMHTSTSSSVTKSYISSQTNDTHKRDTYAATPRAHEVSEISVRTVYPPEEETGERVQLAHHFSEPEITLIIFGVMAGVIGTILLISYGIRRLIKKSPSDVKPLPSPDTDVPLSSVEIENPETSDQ

Results are given in words; binding and its absence hold for the method and conditions named. Some entries that bind do so weakly or less than the wild type.

The target in the assay is Human glycophorin A (format not specified) (human) (UniProt P02724). Briefly: screen of humanized Fabs, kinetic assays with human and cyno GPA and red blood cells.

B1: hF-3-103M1 Fab (humanized 3-103, clone M1; parental / wild-type Fab) (Fab, V domains shown)
VH: QVQLVQSGAEVKKPGASVKVSCTASGFNIKDTYMLWVRQAPGQGLEWMGRIDPANANSRYDPKFQGRVTITADTSTNTAYMELSSLRSEDTAVYYCVDGYMFAYWGQGTLVTVSS
VL: DVVMTQTPLSLSVTPGQPASISCKSSQSLLYSNGKTYLHWLLQKPGQSPQRLIYLVSKLDSGVPDRFSGSGSGTDFTLKISRVEAEDVGVYYCVQGTHFPLTFGQGTKLEIKR
With B1, the binding result was “binds”.
